Two molecules from article PMC9813358, “Insights into the GSDMB-mediated cellular lysis and its targeting by IpaH7.8” (Nature Communications, 2023) can be followed below.

The chains behind the UniProt entries cited, without tags or fusion partners. Residues count along the entry.
UniProt P18014, residues 23-565: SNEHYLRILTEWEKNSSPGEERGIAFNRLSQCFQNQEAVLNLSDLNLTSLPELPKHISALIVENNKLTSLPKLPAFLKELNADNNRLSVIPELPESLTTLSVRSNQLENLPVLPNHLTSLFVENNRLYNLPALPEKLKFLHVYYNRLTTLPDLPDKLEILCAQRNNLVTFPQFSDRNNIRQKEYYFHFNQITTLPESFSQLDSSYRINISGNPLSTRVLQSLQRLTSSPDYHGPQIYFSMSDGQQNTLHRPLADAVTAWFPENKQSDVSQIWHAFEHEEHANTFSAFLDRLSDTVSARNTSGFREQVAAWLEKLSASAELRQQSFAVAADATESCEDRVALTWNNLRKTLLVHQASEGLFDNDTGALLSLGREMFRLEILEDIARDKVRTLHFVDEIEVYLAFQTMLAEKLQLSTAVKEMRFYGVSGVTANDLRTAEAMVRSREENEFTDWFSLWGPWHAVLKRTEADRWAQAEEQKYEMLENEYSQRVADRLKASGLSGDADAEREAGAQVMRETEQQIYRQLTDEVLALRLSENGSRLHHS

The experiment concerns the target His-tagged IpaH7.8 (Shigella flexneri) (UniProt P18014). Briefly: pull-down; His-tagged IpaH7.8 (~100 µg) on Ni-NTA resin, tag-free GSDMB and hGSDMD proteins (~400 µg) added; 25 mM Tris-HCl pH 8.0, 200 mM NaCl, 3 mM β-mercaptoethanol, 4 °C; wash with 10 mM imidazole; SDS-PAGE; both purified.

Results are given in words; binding and its absence hold for the method and conditions named. Some results given as binding are weak or reduced against the parent protein; the word gives no strength.

B1: human GSDMD (natural protein)
chain: MGSAFERVVRRVVQELDHGGEFIPVTSLQSSTGFQPYCLVVRKPSSSWFWKPRYKCVNLSIKDILEPDAAEPDVQRGRSFHFYDAMDGQIQGSVELAAPGQAKIAGGAAVSDSSSTSMNVYSLSVDPNTWQTLLHERHLRQPEHKVLQQLRSRGDNVYVVTEVLQTQKEVEVTRTHKREGSGRFSLPGATCLQGEGQGHLSQKKTVTIPSGSTLAFRVAQLVIDSDLDVLLFPDKKQRTFQPPATGHKRSTSEGAWPQLPSGLSMMRCLHNFLTDGVPAEGAFTEDFQGLRAEVETISKELELLDRELCQLLLEGLEGVLRDQLALRALEEALEQGQSLGPVEPLDGPAGAVLECLVLSSGMLVPELAIPVVYLLGALTMLSETQHKLLAEALESQTLLGPLELVGSLLEQSAPWQERSTMSLPPGLLGNSWGEGAPAWVLLDECGLELGEDTPHVCWEPQAQGRMCALYASLALLSGLSQEPH
notes: also called hGSDMD; WT hGSDMD; source: E. coli BL21 (DE3), purified (same protocol as GSDMB); not shown: His, N-terminal, cleaved; MBP, N-terminal, cleaved
On to B1, for which the binding result is “binds”.

B2: hGSDMD S124R (natural protein, human, UniProt P57764 1-484, looked up)
chain: MGSAFERVVRRVVQELDHGGEFIPVTSLQSSTGFQPYCLVVRKPSSSWFWKPRYKCVNLSIKDILEPDAAEPDVQRGRSFHFYDAMDGQIQGSVELAAPGQAKIAGGAAVSDSSSTSMNVYSLRVDPNTWQTLLHERHLRQPEHKVLQQLRSRGDNVYVVTEVLQTQKEVEVTRTHKREGSGRFSLPGATCLQGEGQGHLSQKKTVTIPSGSTLAFRVAQLVIDSDLDVLLFPDKKQRTFQPPATGHKRSTSEGAWPQLPSGLSMMRCLHNFLTDGVPAEGAFTEDFQGLRAEVETISKELELLDRELCQLLLEGLEGVLRDQLALRALEEALEQGQSLGPVEPLDGPAGAVLECLVLSSGMLVPELAIPVVYLLGALTMLSETQHKLLAEALESQTLLGPLELVGSLLEQSAPWQERSTMSLPPGLLGNSWGEGAPAWVLLDECGLELGEDTPHVCWEPQAQGRMCALYASLALLSGLSQEPH
notes: GSDMD, human, isoform 1 of UniProtKB P57764; construct as m34; also called hGSDMD bearing the S124R mutation; source: E. coli BL21 (DE3), purified (same protocol as GSDMB); not shown: His, N-terminal, cleaved; MBP, N-terminal, cleaved
On to B2, for which the binding entry is recorded as “binds”.
